The record followed here is PubChem BioAssay AID2685 (National Center for Advancing Translational Sciences (NCATS), 2010).

A short description of the experiment: qHTS Assay for Lipid Storage Modulators in Drosophila S3 Cells.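 For cell number change: cells counted by Cell Tracker Red CMTPX staining in the red channel.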 The note with it: BODIPY lipid droplet fluorescence, 18-24 h; for cell number change: measured here: cell count max response, cells fed with added oleic acid. Put shortly: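 Drosophila S3 cells got compounds at several concentrations plus oleic acid (400 uM solution). Laser-scanning cytometry with 488 nm excitation read lipid droplets at 500-530 nm and cells at 575-640 nm. Percent activity was relative to 20 uM Triacsin C.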

Setting [1] is: measured here: lipid fluorescence (Fed channel) AC50, cells fed with added oleic acid.
The mark [2] stands for this setting: measured here: cell number channel AC50, cells fed with added oleic acid.

This is one part of the list. Further columns of the screen follow, without active or inactive calls. Compounds called inactive in the main read-out are mostly missing here. Words in brackets tell the shape of the fitted curve; partial curves, single points and poor fits give uncertain potencies.

Consider `NC(=O)c1nn(CC(=O)Nc2cccc(S(=O)(=O)N3CCCC3)c2)c(=O)c2ccccc12`, for which the cell number change was -6.18%. In addition, the AC50 (as a rule, the midpoint of the concentration-response curve, whichever way the signal moves) under setting [1] was 0.00461 µM [falling, full curve, poor fit].

With `COc1ccc(OC)c(/C=C2\Oc3cc(OCC(=O)N4CCC[C@H]4C(=O)O)ccc3C2=O)c1`, the cell number change is 32.7%. The AC50 under setting [2] is 32.6 µM [rising, single point]. For the same compound, the AC50 under setting [1] was 23.1 µM [rising, single point].

Consider `Cc1cccc(N(CC(=O)O)CC(=O)O)c1`, for which the cell number change was -2.28%.

On to `O=C(CCN1C(=O)/C(=C/c2cccs2)SC1=S)N1CCCCC1`, for which the cell number change turned out to be 46.1%. In addition, the AC50 under setting [2] is 2.59 µM [rising, full curve].

Turning to `O=c1[nH]cc(N(CCO)CCO)c(=O)[nH]1`, the cell number change is 45.4%. In addition, the AC50 under setting [2] is 29.1 µM [rising, single point].

Turning to `CN(C)C(=O)C[n+]1ccc(/C=N/O)cc1`, the cell number change worked out at 0.247%. Besides, the AC50 under setting [1] is 0.731 µM [rising, partial curve, poor fit].

In the case of `COc1cc(/C=C/C(=O)Nc2ccncc2)cc(OC)c1OC`, the cell number change turned out to be 20.7%. Besides, the AC50 under setting [1] was 1.46 µM [rising, partial curve].

For `CC(C)(C)NC(=O)CSc1nc2ccc(NC(=O)CSc3nnc(N)s3)cc2s1`, the AC50 under setting [1] was 16.4 µM [falling, partial curve].

Regarding `CSc1nc(N2CCCC2)c2c(c1C#N)CC(C)(C)OC2`, the cell number change is -10.6%. Further, under setting [1], the AC50 is 0.206 µM [falling, full curve, poor fit].

Take `COCCC(=O)N1CCCC(C(=O)c2ccc(Oc3ccccc3)cc2)C1` (stereo not drawn): the cell number change is -15%. For the same compound, the AC50 under setting [1] was 29.1 µM [falling, single point].

`Cc1cccc(NC(=O)Nc2ccc(S(=O)(=O)Nc3onc(C)c3C)cc2)c1`: the cell number change was -11.1%. Moreover, under setting [1], the AC50 was 20.6 µM [rising, single point].

Take `Cc1ccc(S(=O)(=O)N2CCCC(C(=O)Nc3ccc(C(=O)O)cc3)C2)cc1Cl` (stereo not drawn): the cell number change was 55.3%. Also, the AC50 under setting [2] was 18.4 µM [rising, single point].

On to `O=C(NCCN1CCCCC1)c1ccc(/C=N/O)nc1`, for which the cell number change is -18.6%.

For `COc1ccc(-c2noc(CCC(=O)NC3CCCCC3)n2)cc1OC`, the cell number change worked out at 12.4%.

Regarding `Fc1cc(F)cc(Nc2nc(Cl)nc(NC3CCCC3)n2)c1`, the cell number change was -75.5%. Besides, under setting [2], the AC50 was 5.17 µM [falling, single point]. For the same compound, the AC50 under setting [1] is 13 µM [falling, single point].

In the case of `Cc1nc2oc(C(=O)c3ccc(Br)cc3)c(N)c2c2c1COC(C)(C)C2`, the cell number change was -5.82%. Further, the AC50 under setting [1] is 18.4 µM [rising, single point].

Turning to `CCN(CC(=O)Nc1ccc2c(c1)OCO2)S(=O)(=O)c1ccccc1`, the cell number change is -3.36%. Moreover, the AC50 under setting [1] is 6.51 µM [rising, single point].

Take `CCNC(=S)N(CCc1c(C)[nH]c2ccc(C)cc12)Cc1ccco1`: the AC50 under setting [1] is 29.1 µM [rising, single point].

Consider `Cc1cc(OCC(=O)NNC(=O)c2cccnc2)cc(C)c1Cl`, for which the cell number change is 36.3%. Further, the AC50 under setting [2] was 29.1 µM [rising, single point].

For `Nc1nc(Nc2cccc(Cl)c2)nc(NCc2ccco2)c1[N+](=O)[O-]`, the cell number change was -34.9%. Further, under setting [2], the AC50 is 20.6 µM [falling, single point]. The AC50 under setting [1] is 16.4 µM [falling, single point].

In the case of `CSc1ccccc1NC(=O)CN1C(=O)C2CC=CCC2C1=O` (stereo not drawn), the cell number change is -15.6%. The AC50 under setting [2] is 6.51 µM [falling, single point]. In addition, the AC50 under setting [1] was 6.51 µM [falling, single point].

As for `Cn1c(=O)c2c(nc(NNC(=O)C(F)(F)F)n2C)n(C)c1=O`, the cell number change worked out at 31.4%. Further, the AC50 under setting [1] was 14.6 µM [rising, partial curve].

Turning to `O=C(CNC(=O)N1CC(=O)Nc2ccccc21)Nc1nccs1`, the cell number change is 8.02%. Besides, the AC50 under setting [1] was 20.6 µM [rising, partial curve].

Regarding `O=C1c2ccccc2C(=O)N1CCSc1n[nH]c(=S)s1`, the AC50 under setting [1] is 6.51 µM [falling, single point].

As to `CC1CCC2(CC1)NC(=O)N(NC(=O)c1cc3ccccc3o1)C2=O` (stereo not drawn), the cell number change was found to be 5.35%. In addition, under setting [1], the AC50 was 1.84 µM [rising, full curve, poor fit].

For the compound `COc1ccc(N(C(=O)CNS(=O)(=O)c2ccccc2)C(C(=O)NCc2ccco2)C(C)C)cc1` (stereo not drawn), the cell number change is -8.55%. Besides, under setting [1], the AC50 was 6.51 µM [falling, full curve, poor fit].

On to `CSc1ccc(/C=N/NC(=O)c2cccs2)cc1`, for which the cell number change was 16.8%. Further, the AC50 under setting [1] was 1.64 µM [rising, partial curve, poor fit].

Consider `O=C(O)COc1c(F)c(F)c(C(F)(F)F)c(F)c1F`, for which the cell number change is 26%. Besides, under setting [2], the AC50 was 0.92 µM [rising, full curve, poor fit].

Turning to `COc1ccc2c(c1)OC[C@H]1[C@H]2N2C(=O)CN(Cc3ccco3)C(=O)[C@@]2(C)[C@H]1c1ccccc1`, the cell number change was found to be 3.75%. For the same compound, the AC50 under setting [1] is 0.103 µM [rising, full curve, poor fit].

Take `CC(OC(=O)CN1C(=O)NC2(CCCC2)C1=O)C(=O)Nc1cccc(Cl)c1` (stereo not drawn): the cell number change is -25.8%. For the same compound, the AC50 under setting [1] was 25.9 µM [falling, single point].

`O=C(CSc1nnc2c3ccccc3c3ccccc3c2n1)Nc1ccccc1`: the cell number change is -1.24%.

With `Cc1ccc(C)c(NC(=O)CN(C)C(=O)c2ccc(-c3cccc(C(F)(F)F)c3)o2)c1`, under setting [2], the AC50 was 0.461 µM [rising, full curve].

`CCOC(=O)C1CCCN(c2ncnc3c2cnn3-c2ccc(Cl)cc2)C1` (stereo not drawn): the cell number change is 80.1%.

In the case of `O=C(CSc1nc(-c2ccccc2)cc(C(F)(F)F)n1)N1CCOCC1`, the cell number change is -8.99%.

As to `CCOC(=O)C(C(C)=O)C(c1ccc(OC)cc1)C(C(C)=O)C(=O)OCC` (stereo not drawn), under setting [1], the AC50 was 0.116 µM [falling, full curve, poor fit].

On to `CC(C)C(=O)N1CCN(c2nc(-c3ccccc3)c3c(c2C#N)CCCC3)CC1`, for which the cell number change is 9.97%. Also, the concentration at half-maximal activity (AC50) under setting [1] was 1.16 µM [falling, full curve].

As for `Cc1cc(=O)oc2c3c(cc(OCC(=O)NCc4ccccn4)c12)OC(C)(C)CC3`, the cell number change was -17.8%. Besides, the AC50 under setting [1] was 25.9 µM [falling, single point].

Turning to `O=C(O)C1CCCN1S(=O)(=O)c1ccc(Br)cc1` (stereo not drawn), the cell number change is -12.1%. Under setting [1], the AC50 is 4.11 µM [falling, single point].

For the compound `O=C(CN1CCCC1)Nc1cc(C(F)(F)F)ccc1Cl`, the cell number change turned out to be 17.9%. Further, under setting [2], the AC50 is 0.103 µM [rising, full curve, poor fit].

As to `Cc1ccc(CN2CCN(/N=C\C(Br)=C\c3ccccc3)CC2)cc1`, the cell number change is -18%. Moreover, the AC50 under setting [1] was 18.4 µM [falling, single point].

`CCOC(=O)c1cccc(NC(=O)COc2nsnc2N2CCOCC2)c1`: the cell number change is -6.67%.

For the compound `Cc1cc(N2CCCC(C(=O)Nc3ccc4c(c3)CCC4)C2)n2ncnc2n1` (stereo not drawn), the cell number change was -9.29%. Further, under setting [1], the AC50 was 2.59 µM [rising, single point].

On to `O=C(c1ccc(-c2cccc(C(F)(F)F)c2)o1)N1CCN(c2ccccc2)CC1`, for which the cell number change was 49.6%. The AC50 under setting [2] was 16.4 µM [rising, single point]. Also, under setting [1], the AC50 is 4.61 µM [falling, partial curve, poor fit].

Turning to `NC(=S)N/N=C1\CC(c2ccc3c(c2)OCCCO3)Oc2ccc(F)cc21` (stereo not drawn), the cell number change was -27.4%. Further, under setting [1], the AC50 was 29.1 µM [falling, single point].

Regarding `CC(C)(C)NC(=O)NC(=O)CN1C(=O)NC(c2ccccc2)(c2ccccc2)C1=O`, the cell number change amounted to 3.15%.

For `CCN1CCN(c2cc(C)c3cc(NC(=S)N4CCCC4)ccc3n2)CC1`, the cell number change is 40.8%. The AC50 under setting [1] was 0.82 µM [falling, partial curve, poor fit].

As for `O=C(O)[C@@H]1CCCC[C@@H]1C(=O)N1CCc2ccccc2C1CN1C(=O)c2ccccc2C1=O` (stereo partly drawn), the cell number change was -1.07%. In addition, under setting [1], the AC50 is 0.731 µM [rising, partial curve].

In the case of `N/C(=N\OC(=O)CCCCCN1C(=O)c2ccccc2C1=O)c1ccccc1`, under setting [2], the AC50 is 1.3 µM [rising, partial curve].

With `CN(C(=O)CSc1nnc(-c2ccncc2)n1C)C1CCS(=O)(=O)C1` (stereo not drawn), the cell number change worked out at 0.95%. Moreover, under setting [1], the AC50 is 0.517 µM [falling, full curve].

Turning to `N#Cc1ccc(CN2CCN(C(=O)CNS(=O)(=O)c3ccc4c(c3)OCCCO4)CC2)cc1`, the cell number change is -6.22%. Further, under setting [1], the AC50 was 0.651 µM [falling, single point].

Take `COc1ccc(NC(=O)CCc2c(C)nc3nc(C)nn3c2C)cc1`: the AC50 under setting [2] was 0.461 µM [falling, single point].

For `CC(NC(=O)CCCc1nnc2n(C)c(=O)c3sccc3n12)c1ccccc1` (stereo not drawn), the cell number change was determined as 2.29%. Besides, the AC50 under setting [2] was 6.51 µM [falling, single point]. In addition, the AC50 under setting [1] was 6.51 µM [falling, single point].

With `Fc1ccc(N/N=C/c2cccnc2)c(F)c1`, the cell number change amounted to 52%. In addition, the AC50 under setting [2] is 29.1 µM [rising, single point]. In addition, the AC50 under setting [1] is 3.26 µM [rising, full curve].

Take `O=C(O)c1cccc2c1C(=O)c1ccc(Cl)cc1S2(=O)=O`: the cell number change amounted to 1.41%. Also, the AC50 under setting [2] was 0.146 µM [falling, full curve, poor fit]. For the same compound, the AC50 under setting [1] is 0.092 µM [falling, full curve, poor fit].

For `CCOC(=O)COc1ccc(-c2nnc(-c3ccccc3)o2)cc1`, the cell number change was 4.24%. Moreover, the AC50 under setting [1] is 23.1 µM [falling, single point].

For `CC(C)OCCCNc1nc2c(-c3ccccc3)nnn2c2ccccc12`, the cell number change was 5.48%. For the same compound, under setting [1], the AC50 was 6.51 µM [falling, single point].

With `CCCN1C(=O)C(O)(C2COC(C)(C)CC2=O)c2ccccc21` (stereo not drawn), the cell number change is 5.01%.

As for `O=C1CC(c2cccc([N+](=O)[O-])c2)c2c(ccc3ccccc23)N1` (stereo not drawn), under setting [1], the AC50 is 2.91 µM [falling, single point].

In the case of `CC/C(=N\NC(=O)c1ccccc1Cl)c1ccc(Br)s1`, the cell number change is -16.6%. Moreover, under setting [1], the AC50 was 0.651 µM [falling, full curve, poor fit].

As to `O=C(c1cc(-c2cccc(Cl)c2)on1)N1CCCC1`, the cell number change came to 5.83%.

Regarding `CCOC(=O)Cn1c(=O)oc2cc(S(=O)(=O)Nc3cccc(C)c3)ccc21`, the cell number change amounted to 49.6%. For the same compound, the AC50 under setting [2] is 7.31 µM [rising, partial curve]. Moreover, the AC50 under setting [1] is 1.64 µM [rising, single point].
